Results are given in words; binding and its absence hold for the method and conditions named. In cells and extracts the contact can be indirect. Some results given as binding are weak or reduced against the parent protein; the word gives no strength.

Chains of the proteins cited; added tags and fusions are not shown. Residues count along the entry.
UniProt P02769, residues 25-607: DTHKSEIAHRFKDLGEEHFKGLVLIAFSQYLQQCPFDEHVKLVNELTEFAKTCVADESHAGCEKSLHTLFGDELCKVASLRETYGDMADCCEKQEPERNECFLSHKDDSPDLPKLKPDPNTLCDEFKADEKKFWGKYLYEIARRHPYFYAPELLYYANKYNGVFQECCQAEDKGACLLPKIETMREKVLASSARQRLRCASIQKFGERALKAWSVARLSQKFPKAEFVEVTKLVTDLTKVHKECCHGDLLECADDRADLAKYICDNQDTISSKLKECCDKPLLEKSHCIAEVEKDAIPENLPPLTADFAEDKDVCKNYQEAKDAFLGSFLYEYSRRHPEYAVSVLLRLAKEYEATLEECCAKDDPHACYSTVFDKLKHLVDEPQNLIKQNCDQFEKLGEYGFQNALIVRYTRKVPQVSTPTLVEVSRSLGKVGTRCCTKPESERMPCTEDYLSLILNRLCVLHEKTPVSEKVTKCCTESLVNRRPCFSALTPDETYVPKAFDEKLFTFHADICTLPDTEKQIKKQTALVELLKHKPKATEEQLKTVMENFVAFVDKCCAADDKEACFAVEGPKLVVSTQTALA
UniProt P14210, residues 32-728: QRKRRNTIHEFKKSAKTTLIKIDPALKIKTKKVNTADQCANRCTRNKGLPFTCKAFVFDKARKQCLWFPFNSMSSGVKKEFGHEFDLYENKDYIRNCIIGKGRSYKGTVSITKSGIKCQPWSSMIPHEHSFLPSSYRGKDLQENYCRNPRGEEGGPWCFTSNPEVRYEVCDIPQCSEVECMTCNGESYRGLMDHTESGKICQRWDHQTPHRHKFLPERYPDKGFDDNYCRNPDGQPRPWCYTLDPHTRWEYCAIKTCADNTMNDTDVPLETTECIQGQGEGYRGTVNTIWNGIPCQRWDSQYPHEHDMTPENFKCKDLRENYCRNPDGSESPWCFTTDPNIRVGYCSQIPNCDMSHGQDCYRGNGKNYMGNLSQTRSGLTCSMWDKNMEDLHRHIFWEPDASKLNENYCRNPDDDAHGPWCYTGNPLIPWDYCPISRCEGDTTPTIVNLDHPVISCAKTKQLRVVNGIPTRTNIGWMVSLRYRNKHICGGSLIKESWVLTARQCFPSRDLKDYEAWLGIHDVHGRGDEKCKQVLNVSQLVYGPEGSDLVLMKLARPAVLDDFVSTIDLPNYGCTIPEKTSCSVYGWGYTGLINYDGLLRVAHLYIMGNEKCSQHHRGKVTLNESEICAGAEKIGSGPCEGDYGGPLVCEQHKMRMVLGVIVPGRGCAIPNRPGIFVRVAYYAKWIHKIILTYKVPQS
UniProt P08581, residues 25-1390: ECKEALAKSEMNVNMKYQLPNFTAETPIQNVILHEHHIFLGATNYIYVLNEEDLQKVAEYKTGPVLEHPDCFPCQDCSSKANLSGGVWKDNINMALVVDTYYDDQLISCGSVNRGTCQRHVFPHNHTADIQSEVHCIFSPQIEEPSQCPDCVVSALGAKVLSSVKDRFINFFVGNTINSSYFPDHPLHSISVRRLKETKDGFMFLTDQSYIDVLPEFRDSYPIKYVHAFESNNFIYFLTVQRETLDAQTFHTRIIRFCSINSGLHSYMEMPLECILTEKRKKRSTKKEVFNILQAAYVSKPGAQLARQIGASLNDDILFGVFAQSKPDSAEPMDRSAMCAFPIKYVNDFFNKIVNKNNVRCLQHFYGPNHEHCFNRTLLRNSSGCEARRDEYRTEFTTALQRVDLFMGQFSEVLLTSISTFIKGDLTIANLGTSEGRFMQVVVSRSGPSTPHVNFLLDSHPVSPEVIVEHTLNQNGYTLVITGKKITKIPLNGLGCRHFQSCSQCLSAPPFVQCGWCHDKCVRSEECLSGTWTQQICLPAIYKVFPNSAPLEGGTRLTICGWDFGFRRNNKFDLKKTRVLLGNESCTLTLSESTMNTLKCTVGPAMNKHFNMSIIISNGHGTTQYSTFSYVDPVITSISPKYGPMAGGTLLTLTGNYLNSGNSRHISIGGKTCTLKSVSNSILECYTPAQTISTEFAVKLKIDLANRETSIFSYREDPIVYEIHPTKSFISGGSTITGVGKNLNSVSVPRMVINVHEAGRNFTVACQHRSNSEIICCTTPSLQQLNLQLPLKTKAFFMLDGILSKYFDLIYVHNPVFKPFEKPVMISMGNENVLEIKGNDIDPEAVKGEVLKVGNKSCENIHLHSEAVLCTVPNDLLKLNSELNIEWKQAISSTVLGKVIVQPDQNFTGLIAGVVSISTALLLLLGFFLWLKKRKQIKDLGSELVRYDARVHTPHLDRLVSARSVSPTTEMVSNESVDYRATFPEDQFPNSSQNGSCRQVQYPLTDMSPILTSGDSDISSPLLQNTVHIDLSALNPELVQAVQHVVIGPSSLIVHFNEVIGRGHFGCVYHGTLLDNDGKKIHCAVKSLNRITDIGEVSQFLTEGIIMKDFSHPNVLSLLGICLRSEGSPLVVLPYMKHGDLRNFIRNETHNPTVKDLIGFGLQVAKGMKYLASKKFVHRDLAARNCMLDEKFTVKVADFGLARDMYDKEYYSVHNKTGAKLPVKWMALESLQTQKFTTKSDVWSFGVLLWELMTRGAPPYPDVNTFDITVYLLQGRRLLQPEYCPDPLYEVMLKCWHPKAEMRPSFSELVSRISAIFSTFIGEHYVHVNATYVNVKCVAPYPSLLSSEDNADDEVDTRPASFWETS

For test [1], the target named is BSA (bovine (from the name BSA)) (UniProt P02769). Put plainly: pull-down; HGF (or BSA as control) immobilized on agarose beads, incubated with total cell lysates of PC3 or C4-2 cells; precipitate read by silver staining and immunoblotting; only the target purified. For orientation: In western blotting, separated proteins are transferred to a membrane and probed.
The target in a further test is Hepatocyte Growth Factor (UniProt P14210). Described as above.

Turning to “Met (from UniProt P08581 25-1390) (receptor)”, the binding entry in test [1] is recorded as “no binding”; with Hepatocyte Growth Factor, “binds”.

The record behind these values is paper PMC1559714.
